Experimental data reported in patent US20120225807A1.
No constants are given. Whether binding was seen depends on the method and setting. Some results given as binding are weak or reduced against the parent protein; the word gives no strength. Sequences can lack the tags named with a protein.

Legend:
streptavidin [1] = target: streptavidin (UniProt P22629); experiment: phage ELISA
streptavidin [2] = target: streptavidin (UniProt P22629); experiment: phage ELISA, streptavidin coated on plate, anti-M13/HRP detection

For RECHPQNWTSCSNGSGGG (peptide, not shown: large carriers, disulfide bond constrained peptide) [PHPEP 97 peptide displayed on phage fused to pVII], the binding (streptavidin [1]) was “binds” and the binding (streptavidin [2]) was “binds”.
